Experimental data: patent US20180135112

Experiments:
[1] = molecular target: T1, T5 exonuclease (UniProt P06229); test: enzyme reaction in vitro; conditions: purified recombinant protein, protein details: NEB, label: fluorescein/dabcyl
T1 sequence (looked up, limits assumed): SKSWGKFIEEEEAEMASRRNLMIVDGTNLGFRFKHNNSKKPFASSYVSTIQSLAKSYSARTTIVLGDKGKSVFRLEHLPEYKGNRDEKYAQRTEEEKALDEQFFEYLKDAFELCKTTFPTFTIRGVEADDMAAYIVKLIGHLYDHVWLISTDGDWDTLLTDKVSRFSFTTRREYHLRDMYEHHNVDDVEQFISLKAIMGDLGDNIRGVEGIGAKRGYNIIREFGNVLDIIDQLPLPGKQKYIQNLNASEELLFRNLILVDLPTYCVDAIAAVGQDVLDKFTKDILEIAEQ

[2] = tested on: DNA gyrase (Escherichia coli); test: activity assay; conditions: dabcyl-dT at position 29 and fluorescein-dT at position 55 of the FL905 insert; supercoiling of relaxed plasmid with ATP, monitored by FRET, relatively slow; inhibited by novobiocin (IC50 0.48 uM) and ciprofloxacin (IC50 […]); 4 mM MgCl2, 37 C; purified recombinant protein; protein details: New England Biolabs; label: fluorescein/dabcyl
[3] = molecular target: T2, DNA topoisomerase I (Escherichia coli) (UniProt P06612); test: activity assay; conditions: dabcyl-dT at position 29 and fluorescein-dT at position 55 of the FL905 insert; rapid relaxation of supercoiled plasmid by large amounts of enzyme, FRET kinetics; purified recombinant protein; protein details: purified as described previously; label: fluorescein/dabcyl; variant of relaxed pAB1_FL905 plasmid
T2 sequence (looked up, limits assumed): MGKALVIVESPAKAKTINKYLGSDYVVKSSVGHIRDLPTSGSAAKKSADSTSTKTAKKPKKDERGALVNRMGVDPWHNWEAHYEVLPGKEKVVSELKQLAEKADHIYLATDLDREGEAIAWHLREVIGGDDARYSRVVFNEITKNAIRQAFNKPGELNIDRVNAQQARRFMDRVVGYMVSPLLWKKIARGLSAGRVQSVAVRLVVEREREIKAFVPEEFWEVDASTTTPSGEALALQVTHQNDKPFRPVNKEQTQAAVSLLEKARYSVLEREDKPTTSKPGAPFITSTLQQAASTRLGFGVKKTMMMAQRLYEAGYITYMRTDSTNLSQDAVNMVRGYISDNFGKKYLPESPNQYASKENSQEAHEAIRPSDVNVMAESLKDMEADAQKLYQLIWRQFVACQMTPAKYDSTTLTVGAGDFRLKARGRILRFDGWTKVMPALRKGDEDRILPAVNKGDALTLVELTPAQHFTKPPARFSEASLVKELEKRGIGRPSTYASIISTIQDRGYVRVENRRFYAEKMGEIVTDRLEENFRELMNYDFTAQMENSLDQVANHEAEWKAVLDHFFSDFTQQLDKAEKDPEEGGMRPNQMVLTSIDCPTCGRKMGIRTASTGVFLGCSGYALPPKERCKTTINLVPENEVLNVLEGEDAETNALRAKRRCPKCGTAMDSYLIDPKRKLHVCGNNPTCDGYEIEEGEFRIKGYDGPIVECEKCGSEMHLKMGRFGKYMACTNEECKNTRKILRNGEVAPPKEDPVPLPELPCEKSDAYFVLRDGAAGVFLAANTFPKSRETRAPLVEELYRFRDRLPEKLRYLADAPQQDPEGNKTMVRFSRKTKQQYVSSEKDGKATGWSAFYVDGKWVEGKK

## TCAGCCCGACAGCACGAGACGATATATATATATATATATATATATATATATATATATATATATGGGCCAACCAACCAGCCCC [relaxed pAB1_FL905 plasmid]
[1]; dabcyl-dT at position 29 and fluorescein-dT at position 55 of the FL905 insert, does not degrade relaxed closed circular plasmid
  activity on this sequence: not active
[2]
  activity on this sequence: active

## TCAGCCCGACAGCACGAGACGATATATATATATATATATATATATATATATATATATATATATGGGCCAACCAACCAGCCCC [supercoiled pAB1_FL905 plasmid]
[1]; dabcyl-dT at position 29 and fluorescein-dT at position 55 of the FL905 insert, does not degrade supercoiled plasmid, variant of relaxed pAB1_FL905 plasmid
  activity on this sequence: not active
[3]
  activity on this sequence: active

## TCAGCCCGACAGCACGAGACGATATATATATATATATATATATATATATATATATATATATATGGGCCAACCAACCAGCCCC [FL905 single-stranded oligomer]
[1]; dabcyl-dT at position 29 and fluorescein-dT at position 55, 5'-phosphorylated, digests ss FL905, single-stranded DNA
  activity on this sequence: active

For some assays here: A negative result means that nothing was seen under these conditions. For some assays here: Where a protein sequence is shown, tags need not be part of it. For some assays here: Construct, isoform or probe ends are uncertain for at least one entry.
